# Assay results published in doi:10.1101/2022.05.06.490860 (bioRxiv, 2022).
# T1: 3×FLAG-2×Strep-YjoB (B. subtilis) (UniProt O34703)
# T1 sequence: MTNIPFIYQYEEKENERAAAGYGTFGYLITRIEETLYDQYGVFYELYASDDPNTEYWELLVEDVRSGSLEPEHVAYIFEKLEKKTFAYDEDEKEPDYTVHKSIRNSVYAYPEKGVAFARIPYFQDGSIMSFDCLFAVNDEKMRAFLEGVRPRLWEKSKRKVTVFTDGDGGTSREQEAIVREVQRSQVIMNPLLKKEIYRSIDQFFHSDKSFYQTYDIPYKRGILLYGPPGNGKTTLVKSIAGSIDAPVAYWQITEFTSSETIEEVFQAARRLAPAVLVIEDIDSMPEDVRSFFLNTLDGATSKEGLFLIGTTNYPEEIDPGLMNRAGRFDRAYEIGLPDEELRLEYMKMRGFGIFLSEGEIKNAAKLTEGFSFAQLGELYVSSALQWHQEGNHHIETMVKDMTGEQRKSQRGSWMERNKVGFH
# B1: GapB (NADP+-dependent glyceraldehyde-3 phosphate dehydrogenase) (enzyme, UniProt O34425 1-340)
# chain: MKVKVAINGFGRIGRMVFRKAMLDDQIQVVAINASYSAETLAHLIKYDTIHGRYDKEVVAGEDSLIVNGKKVLLLNSRDPKQLPWREYDIDIVVEATGKFNAKDKAMGHIEAGAKKVILTAPGKNEDVTIVMGVNEDQFDAERHVIISNASCTTNCLAPVVKVLDEEFGIESGLMTTVHAYTNDQKNIDNPHKDLRRARACGESIIPTTTGAAKALSLVLPHLKGKLHGLALRVPVPNVSLVDLVVDLKTDVTAEEVNEAFKRAAKTSMYGVLDYSDEPLVSTDYNTNPHSAVIDGLTTMVMEDRKVKVLAWYDNEWGYSCRVVDLIRHVAARMKHPSAV
# B2: KatA (endogenous, B. subtilis) (enzyme, UniProt P26901 1-483)
# chain: MSSNKLTTSWGAPVGDNQNSMTAGSRGPTLIQDVHLLEKLAHFNRERVPERVVHAKGAGAHGYFEVTNDVTKYTKAAFLSEVGKRTPLFIRFSTVAGELGSADTVRDPRGFAVKFYTEEGNYDIVGNNTPVFFIRDAIKFPDFIHTQKRDPKTHLKNPTAVWDFWSLSPESLHQVTILMSDRGIPATLRHMHGFGSHTFKWTNAEGEGVWIKYHFKTEQGVKNLDVNTAAKIAGENPDYHTEDLFNAIENGDYPAWKLYVQIMPLEDANTYRFDPFDVTKVWSQKDYPLIEVGRMVLDRNPENYFAEVEQATFSPGTLVPGIDVSPDKMLQGRLFAYHDAHRYRVGANHQALPINRARNKVNNYQRDGQMRFDDNGGGSVYYEPNSFGGPKESPEDKQAAYPVQGIADSVSYDHYDHYTQAGDLYRLMSEDERTRLVENIVNAMKPVEKEEIKLRQIEHFYKADPEYGKRVAEGLGLPIKKDS
# B3: SufA (protein, UniProt O32113 1-120)
# chain: MSNPVTITEAAALHIKDMMKEHEEENAFLRVGVKGGGCSGLSYGMGFEHEKSESDSVFDQHGITVLVDKESLDIMNGTVIDYKQSMLGGGFTIDNPNAIASCGCGSSFRTATNAGKPEEC
# B4: TrxA (thioredoxin) (protein, UniProt P14949 1-104)
# chain: MAIVKATDQSFSAETSEGVVLADFWAPWCGPCKMIAPVLEELDQEMGDKLKIVKIDVDENQETAGKYGVMSIPTLLVLKDGEVVETSVGFKPKEALQELVNKHL
# B5: YjoA (protein, UniProt O34334 1-154)
# chain: MCQSNQIVSHFLSHRNVTNELAEKISKDHYSYKPAETSMSAEELVKHILTSFHLFANVIKEGNASPFQNKQEETETDLNVLAKTYTEKTVAILEQLTEEQLDREIDLTSAFGRKVTGRALLQLAMEHEIHHKGNLFVYVREMGHTELPFYQQRM
# B6: YutI (protein, UniProt O32119 1-111)
# chain: MCYNRESNFANQTIDFYCYTEYNGFMTTKGANVMTEVEMKEQVQEVLDKLRPFLLRDGGDCELVDVDEGIVKLRLLGACGSCPSSTITLKAGIERALLEEVPGVVEVEQVF
# B7: AhpC (protein, UniProt P80239 1-187)
# chain: MSLIGKEVLPFEAKAFKNGEFIDVTNEDLKGQWSVFCFYPADFSFVCPTELEDLQEQYAALKELGVEVYSVSTDTHFVHKGWHDSSEKISKITYAMIGDPSQTISRNFDVLDEETGLADRGTFIIDPDGVIQTVEINAGGIGRDASNLVNKVKAAQYVRQNPGEVCPAKWEEGGETLTPSLDLVGKI
# B8: SufD (protein, UniProt O32165 1-437)
# chain: MTLGTKLSVDQEYLKSFSEKHQEPAWLKNLRLQALEQAEDLPMPKPDKTKITNWNFTNFAKHTVDNEPLSSLEDLTDEVKALIDIENEDKTLYVQRDQTPAHLSLSQELKDKGVIFTDILTAAREHSDLVEKYFMKDGVKVDEHKLTALHAALVNGGAFLYVPKNVQVETPVQAVYVHESNDTALFNHVLIVAEDHSSVTYVENYISTVNPKDAVFNIISEVITGDNASVTYGAVDNLSSGVTTYVNRRGAARGRDSKIEWALGLMNDGDTISENTTNLYGDGTYGDTKTVVVGRGEQTENFTTQIIHFGKASEGYILKHGVMKDSASSIFNGIGKIEHGASKANAEQESRVLMLSEKARGDANPILLIDEDDVTAGHAASVGRVDPIQLYYLMSRGIPKEEAERLVIYGFLAPVVNELPIEGVKKQLVSVIERKVK
# B9: YwfI (protein, UniProt P39645 1-254)
# chain: MSEQQMTNEAAKTLDGWYALHDFRTMDWASWKLLSSDERQSIIHEFTGLLEKWGVAQKEGKGSQTLYSIVGQKADFMLMILRPTMEELNQIELEFNKSRLAEFTIPAYSYVSVVELSNYLASGDGDPYENPHVRARLYPELPESKYVCFYPMDKRRSGNDNWYMLSMEERRNLMRSHGLIGRSYAGKVKQIITGSVGFDDYEWGVTLFSDDVLQFKKLVYEMRFDEVSARYGEFGSFFVGNHLSLDTLPQFLYV
# Target: T1, 3×FLAG-2×Strep-YjoB (B. subtilis)
# Assay: affinity purification with mass spectrometry
row,Molecule,binding
1,YqiW,binds
2,YphP,binds
3,B1,binds
4,B2,binds
5,B3,binds
6,B4,binds
7,B5,binds
8,B6,binds
9,B7,binds
10,B8,binds
11,B9,binds

# No constants are given. Whether binding was seen depends on the method and setting. Binding seen in cells or lysates may run through a third protein. A yes stands for co-enrichment or nearness to the bait. Other partners may have been found. Where a sequence is shown, tags or fusion partners need not be part of it.
